According to article PMC3351436, “Direct and Allosteric Inhibition of the FGF2/HSPGs/FGFR1 Ternary Complex Formation by an Antiangiogenic, Thrombospondin-1-Mimic Small Molecule” (PLoS ONE, 2012):
These are yes or no findings as the source states them, for the method shown. Some entries that bind do so weakly or less than the wild type.

Chains of the proteins cited; added tags and fusions are not shown. Residues count along the entry.
UniProt P16092, residues 22-822: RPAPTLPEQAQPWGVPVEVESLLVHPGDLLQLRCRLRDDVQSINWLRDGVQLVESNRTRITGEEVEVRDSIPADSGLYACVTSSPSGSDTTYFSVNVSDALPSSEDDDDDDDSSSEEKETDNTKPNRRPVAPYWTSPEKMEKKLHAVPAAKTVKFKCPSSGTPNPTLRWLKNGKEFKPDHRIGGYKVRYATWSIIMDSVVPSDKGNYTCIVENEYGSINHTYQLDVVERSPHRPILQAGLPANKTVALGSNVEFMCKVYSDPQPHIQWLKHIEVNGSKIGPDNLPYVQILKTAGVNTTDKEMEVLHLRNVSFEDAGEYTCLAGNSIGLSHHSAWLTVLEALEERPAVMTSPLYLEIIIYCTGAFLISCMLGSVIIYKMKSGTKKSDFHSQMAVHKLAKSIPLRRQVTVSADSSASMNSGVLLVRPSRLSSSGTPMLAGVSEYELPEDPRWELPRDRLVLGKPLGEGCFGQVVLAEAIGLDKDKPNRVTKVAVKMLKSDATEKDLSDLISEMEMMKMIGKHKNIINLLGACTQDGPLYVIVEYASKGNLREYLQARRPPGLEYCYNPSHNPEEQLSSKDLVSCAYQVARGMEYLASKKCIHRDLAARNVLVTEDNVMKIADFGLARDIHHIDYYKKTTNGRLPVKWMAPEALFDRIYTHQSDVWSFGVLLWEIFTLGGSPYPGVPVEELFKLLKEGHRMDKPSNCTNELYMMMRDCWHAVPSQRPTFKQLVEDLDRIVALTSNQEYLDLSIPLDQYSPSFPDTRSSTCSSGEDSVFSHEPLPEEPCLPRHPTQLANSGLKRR
UniProt P09038, residues 134-288: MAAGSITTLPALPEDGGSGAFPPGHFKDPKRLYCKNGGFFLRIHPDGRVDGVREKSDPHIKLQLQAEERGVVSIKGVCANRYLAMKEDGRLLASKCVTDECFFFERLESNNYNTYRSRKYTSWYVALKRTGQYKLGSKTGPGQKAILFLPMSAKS

Molecular target: FGFR1 on FGFR1-transfected A745 CHO flg-1A cells (UniProt P16092)
Test: binding of Europium-labeled FGF2 to cells; Eu-FGF2 (10 ng/ml) on FGFR1-transfected, HSPG-deficient A745 CHO flg-1A cells, in the presence of sm27 or unlabeled FGF2 (1.5 µg/ml); only the binder purified

binding: binds
Substance: Human recombinant FGF2 (from UniProt P09038-2 1-155) (ligand)
